# Certain results were filed several times, with different values. Only these are listed. The source may hold further records. Values that stand side by side read as repeated measurements (runs, samples, wells or individuals).
# Test system: Human multiple myeloma cell (MM.1S)
# Assay: Tumor cell proliferation inhibition (cell viability assay)
# Conditions: read-out: Inhibitory activity against tumor cells proliferation (IC50, nM) MM.1S; MM.1S cells; 96 hours
smiles,measurement,value
Nc1cccc2c1CN(C1CCC(=O)NC1=O)C2=O (stereo not shown),IC50,1 µM to 5 µM and 200 nM to 500 nM

# Reference: patent EP4834897A1, “COMPOUNDS WITH TWO AZAHETEROCYCLES SUBSTITUTED ISOINDOLINONE SKELETON AND USES THEREOF” (dated 2026)
